Measurements taken from PMC2585060.
Results are given in words; binding and its absence hold for the method and conditions named. In cells and extracts the contact can be indirect. For some assays here: Binding calls can cover weak binding; strength is not graded here. For some assays here: Tags and fused reporters may be left off the sequences shown.

How the values were obtained:
[1] = biological target: GST-tagged β1 integrin cytoplasmic tail Y788A; assay: pull-down; 5 µg recombinant GST-β integrin tails incubated overnight with 500 µg IEC lysate (50 mM Tris pH 7.4, 150 mM NaCl, 1 mM EDTA, 1% Triton-X-100), precipitated with glutathione beads, western blot for Kindlin-1 and GST; also done with keratinocyte lysates; only the target purified
[2] = biological target: GST-tagged β1 integrin cytoplasmic tail Y800A; assay: as above
[3] = biological target: GST-tagged β1 integrin cytoplasmic tail; assay: as above
[4] = biological target: GST-tagged β1 integrin cytoplasmic tail Y800A; assay: pull-down; direct binding assay: recombinant His-tagged Kindlin-1 C-terminus co-precipitated with GST-tagged β1 integrin cytoplasmic tails; both purified
[5] = biological target: GST-tagged β1 integrin cytoplasmic tail; assay: as above

B1: Kindlin-1 (protein, UniProt P59113 1-677)
chain: MLSSGDLTSASWELVVRVDHANGEQQTEITLRVSGDLHIGGVMLKLVEQMNIAQDWSDYALWWEQKRCWLLKTHWTLDKCGVQADANLLFTPQHKMLRLRLPNAKTVRLRVSFSAVVFKAVADICKVLNIRRPEELSLLKPSSDYCKKKKKKEKNSKEPVIEDILNLESSSTSSGSPVSPGLYSKTMTPTYDPINGTPALSTMTWFGDSPLTEQNCSVLAFSQPPPSPDVLADMFQPRSLVDKAKMNAGWLDSSRSLMEQSIQEDEQLQLRFKYYTFFDLNPKYDAVRINQLYEQARWAVLLEEIDCTEEEMLIFAALQYHISKLSQCAEIQDFATKSEVDEVEAALSSLEVTLEGGKADNTLEDITDIPKLADYLKLFRPKKLMLKACKQYWFVFKDTSIAYFKNKELEQGEPIEKLNLRGCEIVPDVNVSGRKFGIKLLIPVADGMNEVYLRCDHEDQYARWMAACILASKGKTMADSSYQPEVISILSFLKMKNRNSSPLVASSLENMDMNPECLVSPCCAKKHKSKQLAARILEAHHNVAQMPLVEAKLQFIQAWQSLPEFGLTYYLVRFKGSKKDDILGVAYNRLIRIDAVTGIPVTTWRFANMKQWNVNWEIRQVAIEFDQNVSIAFTCLSADCKIVHEYIGGYIFLSTRSKDQNETLDEDLFHKLTGGQD
With B1 the binding [1] was “binds”, the binding [2] was “no binding” and the binding [3] was “binds”.

B2: His-tagged C-terminal FERM domain of Kindlin-1 (aa 471–677) (domain or fragment, UniProt P59113 471-677)
chain: ASKGKTMADSSYQPEVISILSFLKMKNRNSSPLVASSLENMDMNPECLVSPCCAKKHKSKQLAARILEAHHNVAQMPLVEAKLQFIQAWQSLPEFGLTYYLVRFKGSKKDDILGVAYNRLIRIDAVTGIPVTTWRFANMKQWNVNWEIRQVAIEFDQNVSIAFTCLSADCKIVHEYIGGYIFLSTRSKDQNETLDEDLFHKLTGGQD
For B2, the binding [4] was “no binding” and the binding [5] was “binds”.
